Holding throughout (experiment): co-IP
Assay [1] concerns the target HA-tagged wild-type STING (human), Q86WV6. To be noted: remark: other sources report otherwise.
Assay [2] concerns the target HA-tagged STING Y314E (human) (UniProt Q86WV6).
In assay [3] the target is HA-tagged STING Y245E (human) (UniProt Q86WV6).
For assay [4], the target named is T1, Myc-tagged IRF3 2SA mutant (S385A/S386A) (human) (UniProt Q14653).
T1 sequence: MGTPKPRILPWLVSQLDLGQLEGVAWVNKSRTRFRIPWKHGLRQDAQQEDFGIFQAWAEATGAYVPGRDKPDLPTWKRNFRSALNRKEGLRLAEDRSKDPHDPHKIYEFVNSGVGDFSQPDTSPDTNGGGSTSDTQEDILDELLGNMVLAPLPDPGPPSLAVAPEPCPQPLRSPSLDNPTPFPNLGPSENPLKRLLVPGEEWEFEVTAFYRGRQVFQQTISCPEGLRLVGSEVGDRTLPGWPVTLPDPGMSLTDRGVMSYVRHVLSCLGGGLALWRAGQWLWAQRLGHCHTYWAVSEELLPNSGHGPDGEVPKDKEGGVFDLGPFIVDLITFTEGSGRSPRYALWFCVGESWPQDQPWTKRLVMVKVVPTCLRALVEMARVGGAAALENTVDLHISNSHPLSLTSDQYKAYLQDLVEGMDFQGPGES

Sequences of proteins named here, by UniProt entry; tags and fusion partners are left off. A change or cut given only in a name is not applied to a line headed by its entry.
UniProt Q86WV6, whole entry: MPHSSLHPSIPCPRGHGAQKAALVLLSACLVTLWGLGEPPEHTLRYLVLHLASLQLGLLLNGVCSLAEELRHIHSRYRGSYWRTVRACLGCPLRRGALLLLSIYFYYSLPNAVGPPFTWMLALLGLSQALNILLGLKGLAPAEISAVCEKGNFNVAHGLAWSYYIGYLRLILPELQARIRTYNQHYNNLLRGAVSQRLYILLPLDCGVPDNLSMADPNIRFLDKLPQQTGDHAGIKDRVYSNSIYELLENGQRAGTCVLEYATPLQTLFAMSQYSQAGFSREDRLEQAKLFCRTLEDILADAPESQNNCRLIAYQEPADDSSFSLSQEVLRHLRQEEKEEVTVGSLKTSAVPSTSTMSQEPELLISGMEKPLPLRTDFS

No constants are given. Whether binding was seen depends on the method and setting. Binding seen in cells or lysates may run through a third protein. Some entries that bind do so weakly or less than the wild type. Tags and fused reporters may be left off the sequences shown.

B1: Myc-tagged TBK1, Q9UHD2 1-729 (enzyme)
chain: MQSTSNHLWLLSDILGQGATANVFRGRHKKTGDLFAIKVFNNISFLRPVDVQMREFEVLKKLNHKNIVKLFAIEEETTTRHKVLIMEFCPCGSLYTVLEEPSNAYGLPESEFLIVLRDVVGGMNHLRENGIVHRDIKPGNIMRVIGEDGQSVYKLTDFGAARELEDDEQFVSLYGTEEYLHPDMYERAVLRKDHQKKYGATVDLWSIGVTFYHAATGSLPFRPFEGPRRNKEVMYKIITGKPSGAISGVQKAENGPIDWSGDMPVSCSLSRGLQVLLTPVLANILEADQEKCWGFDQFFAETSDILHRMVIHVFSLQQMTAHKIYIHSYNTATIFHELVYKQTKIISSNQELIYEGRRLVLEPGRLAQHFPKTTEENPIFVVSREPLNTIGLIYEKISLPKVHPRYDLDGDASMAKAITGVVCYACRIASTLLLYQELMRKGIRWLIELIKDDYNETVHKKTEVVITLDFCIRNIEKTVKVYEKLMKINLEAAELGEISDIHTKLLRLSSSQGTIETSLQDIDSRLSPGGSLADAWAHQEGTHPKDRNVEKLQVLLNCMTEIYYQFKKDKAERRLAYNEEQIHKFDKQKLYYHATKAMTHFTDECVKKYEAFLNKSEEWIRKMLHLRKQLLSLTNQCFDIEEEVSKYQEYTNELQETLPQKMFTASSGIKHTMTPIYPSSNTLVEMTLGMKKLKEEMEGVVKELAENNHILERFGSLTMDGGLRNVDCL
Turning to B1, the binding result in assay [1] was “binds”.

B2: Myc-tagged TBK1 (enzyme, UniProt Q9UHD2 1-729)
chain: B1 chain
For B2, the binding entry in assay [2] and in assay [3] was “binds” in each case.

B3: HA-tagged TBK1 (enzyme, UniProt Q9UHD2 1-729)
chain: B1 chain
For the molecule B3, the binding result in assay [4] is on record as “binds”.

The values are drawn from publication doi:10.1101/2025.10.20.683412.
